These are yes or no findings as the source states them, for the method shown. In cells and extracts the contact can be indirect. Binding can be weak; no strength is given. Where a sequence is shown, tags or fusion partners need not be part of it.

In this assay the target is T1, mKG N-terminal fragment fused to mGRHL3 (mouse) (UniProt Q5FWH3).
T1 sequence: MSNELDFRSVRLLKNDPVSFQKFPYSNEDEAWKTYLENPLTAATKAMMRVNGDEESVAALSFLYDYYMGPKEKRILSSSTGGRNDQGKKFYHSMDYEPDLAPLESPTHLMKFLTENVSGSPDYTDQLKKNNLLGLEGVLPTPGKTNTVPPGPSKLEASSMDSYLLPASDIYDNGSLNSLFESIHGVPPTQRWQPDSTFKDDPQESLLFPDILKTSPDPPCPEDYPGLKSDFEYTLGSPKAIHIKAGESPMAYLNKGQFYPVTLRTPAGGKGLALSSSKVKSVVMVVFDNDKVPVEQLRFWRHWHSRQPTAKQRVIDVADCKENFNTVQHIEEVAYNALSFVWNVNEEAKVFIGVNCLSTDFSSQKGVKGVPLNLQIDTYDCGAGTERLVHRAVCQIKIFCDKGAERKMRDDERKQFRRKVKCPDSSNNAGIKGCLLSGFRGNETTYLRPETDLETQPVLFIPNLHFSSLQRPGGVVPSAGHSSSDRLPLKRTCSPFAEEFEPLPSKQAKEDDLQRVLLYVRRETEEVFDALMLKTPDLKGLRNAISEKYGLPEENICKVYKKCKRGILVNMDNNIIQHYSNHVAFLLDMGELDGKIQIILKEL
Nature of the assay: split reporter; monomeric Kusabira-Green (mKG) fragment complementation, CoralHue Fluo-chase kit; MCF7 and NIH3T3 cells co-transfected with equal amounts of the two plasmids.

For the substance “mUSP39 fused to an mKG C-terminal fragment (mouse)”, the binding entry is on record as “binds”.

These data come from PMC9018712.
